Experimental data reported in PMC4265162.
No constants are given. Whether binding was seen depends on the method and setting. Binding seen in cells or lysates may run through a third protein. Binding calls can cover weak binding; strength is not graded here.

Key:
Assay in all cases: split reporter; firefly luciferase complementation imaging; N-Luc and C-Luc fusions co-expressed in Nicotiana benthamiana leaves
[1] = biological target: T1, OsPIP1;1, plasma membrane intrinsic protein (aquaporin) (rice) (UniProt Q6EU94)
T1 sequence: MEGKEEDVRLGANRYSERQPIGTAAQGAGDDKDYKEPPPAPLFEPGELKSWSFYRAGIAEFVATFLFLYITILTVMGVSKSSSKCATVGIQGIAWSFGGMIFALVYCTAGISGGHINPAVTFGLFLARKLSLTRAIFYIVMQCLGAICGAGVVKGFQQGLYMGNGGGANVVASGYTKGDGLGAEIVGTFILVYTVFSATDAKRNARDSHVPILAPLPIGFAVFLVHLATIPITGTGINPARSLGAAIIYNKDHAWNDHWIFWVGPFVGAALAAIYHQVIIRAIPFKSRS

[2] = biological target: T2, OsPIP1;3, plasma membrane intrinsic protein (aquaporin) (rice) (UniProt Q9SXF8)
T2 sequence: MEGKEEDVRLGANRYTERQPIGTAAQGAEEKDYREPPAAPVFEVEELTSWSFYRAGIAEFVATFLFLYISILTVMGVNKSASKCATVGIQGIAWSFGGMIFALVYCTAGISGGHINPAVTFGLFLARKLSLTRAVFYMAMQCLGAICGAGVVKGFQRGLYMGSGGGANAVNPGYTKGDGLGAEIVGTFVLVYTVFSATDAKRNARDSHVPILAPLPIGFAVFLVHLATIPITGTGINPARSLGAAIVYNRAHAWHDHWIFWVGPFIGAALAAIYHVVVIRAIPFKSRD

[3] = biological target: T3, OsPIP2;3, plasma membrane intrinsic protein (aquaporin) (rice) (UniProt Q7XUA6)
T3 sequence: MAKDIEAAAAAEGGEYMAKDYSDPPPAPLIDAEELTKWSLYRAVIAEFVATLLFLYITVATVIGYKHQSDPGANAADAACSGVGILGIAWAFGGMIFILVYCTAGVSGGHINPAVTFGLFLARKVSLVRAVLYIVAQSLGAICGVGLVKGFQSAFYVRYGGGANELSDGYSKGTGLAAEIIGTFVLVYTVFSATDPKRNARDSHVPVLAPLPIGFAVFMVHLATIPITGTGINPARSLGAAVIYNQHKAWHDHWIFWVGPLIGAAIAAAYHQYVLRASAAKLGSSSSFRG

Measured: binding

Leaf Panicle 2 (LP2), leucine-rich repeat receptor-like kinase (rice (Oryza sativa))
binds: all assays above
